# In all, about 330,000 compounds went through this assay and about 7,700 (2.3%) were called active. This list was built around the results that the source calls inconclusive (neither active nor inactive); the mix of calls is not that of the screen. Calls come from the whole dose curve; as a rule, active = well fitted inhibition curve with a large enough effect; inconclusive = small, poorly fitted or top-dose-only effect, or effect the other way; inactive = flat fitted curve, though single readings scatter. A potency beside an inconclusive call is a rough fit, not a confirmed value.
# Experiment: qHTS screen for small molecules that inhibit ELG1-dependent DNA repair in human embryonic kidney (HEK293T) cells expressing luciferase-tagged ELG1; note: nearly all actives have a fitted effect of over 55% in size
# Details: HEK293T ELG1-luciferase reporter, luminescence, 16 h, DNA damage induced by 5-fluorouridine; activity change, negative = inhibition: at 46.1 µM (top of the series)
# Procedure, shortened: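 5-Fluorouridine DNA damage + compound/DMSO, 2,000 cells/well, 16 h, 37 °C/5% CO2. ONE-Glo, 30 min RT, luminescence. Readout = decrease in reporter signal.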
# % is set by controls: 0 for no effect and ±100 for the full control effect; potency is the fitted concentration of half-maximal effect.
Compound,Potency,"activity change, negative = inhibition"
CCN(CC)C(=O)c1ccc(-c2nnc(Nc3ccc(C(=O)NC)cc3)c3ccccc23)cc1,"inconclusive: 5.8 µM [inhibitor, full curve]",
Cn1cnnc1Sc1ccc(C(F)(F)F)cc1[N+](=O)[O-],active: 8.2 µM,
CC1CCc2sc(C(=O)Nc3ccc(C(N)=O)cc3)cc2C1 (configuration not stated),"inconclusive: 18.3 µM [activator, partial curve]",
CCOc1cc(NC(=O)C2CCCCC2)c(OCC)cc1NC(=O)c1ccccn1,"inconclusive: 20.6 µM [inhibitor, single point]",
CS(=O)(=O)N1CCc2cc(C(=O)Nc3ccc(Cl)cc3)ccc21,,inactive: -20.4%
CC1CCN(c2nc(-c3ccc(F)cc3)cc(C(F)(F)F)n2)CC1,,inactive: 3.08%
COc1ccc(CNC(=O)/C(C#N)=C/c2cccc(OC)c2OC)cc1,,inactive: -0.822%
O=C(O)CCCC(=O)Nc1cccc([N+](=O)[O-])c1,,inactive: 8.33%
O=C(Nc1ccc(S(=O)(=O)N2CCc3ccccc32)cc1)c1ccc2c(c1)OCO2,"inconclusive: 18.4 µM [inhibitor, single point]",
COc1ccc(NC(=O)CSc2nc(NS(=O)(=O)c3ccc(C)cc3)cc(=O)[nH]2)cc1,"inconclusive: 29.1 µM [activator, single point]",
CCOC(=O)Cc1csc(NC(=O)c2c(-c3c(Cl)cccc3Cl)noc2C)n1,,inactive: -2.12%
Cc1ccc(N(CC(=O)Nc2ccc(-c3nc4ccc(C)cc4s3)cc2)S(C)(=O)=O)cc1,"inconclusive: 3.66 µM [activator, partial curve]",
CCN(CC)S(=O)(=O)c1ccc(N2CCN(c3ccccc3OC)CC2)c(N)c1,"inconclusive: 11.6 µM [inhibitor, single point]",
O=C(Nc1ccc(-n2ccc(C(F)(F)F)n2)cc1)Nc1cccc(Cl)c1,"inconclusive: 29.1 µM [activator, single point]",
O=C(Cn1c2ccccc2c2nc3n(c(=O)c21)CCS3)Nc1ccccc1,"inconclusive: 6.51 µM [inhibitor, full curve, poor fit]",
CCc1ccc(NC(=O)NC2CCCCCCC2)cc1,"inconclusive: 3.66 µM [activator, full curve]",
C=CCn1c(NC(=O)c2ccc(C)cc2)c(C#N)sc1=N,"inconclusive: 8.2 µM [activator, partial curve]",
CCCOc1ccc(/C=c2\sc3ncnn3c2=O)cc1,,inactive: -3.64%
COc1ccc(Cl)cc1NC(=O)CC1CCCC1,"inconclusive: 18.3 µM [activator, partial curve, poor fit]",
CC1CC(C)(C)NC(=S)N1CCCC(=O)N1CCN(c2ccccc2F)CC1 (configuration not stated),,inactive: -5.38%
O=C(Oc1ccc(N(Cc2cccs2)C2=NS(=O)(=O)c3ccccc32)cc1)c1ccco1,"inconclusive: 25.9 µM [inhibitor, partial curve, poor fit]",
O=C(O)CN1CCN(Cc2ccccc2Cl)C1=O,"inconclusive: 29.1 µM [inhibitor, single point]",
CCCCC(=O)OCC(=O)c1[nH]c(C)c(C(=O)OCC)c1C,"inconclusive: 16.4 µM [activator, partial curve, poor fit]",

Compound,Potency,"activity change, negative = inhibition"
O=C1CC[C@@H](CN(Cc2ccccc2)Cc2cn[nH]c2-c2cc3ccccc3o2)N1,"inconclusive: 25.9 µM [inhibitor, partial curve, poor fit]",
COC(=O)C1CCN(C(=O)CSc2nc3nc(C)cc(C)n3n2)CC1,"inconclusive: 25.9 µM [activator, partial curve, poor fit]",
CN(C)C(=O)N1CCC(C(=O)N2CCCC(C(=O)c3cccc4ccccc34)C2)CC1 (configuration not stated),"inconclusive: 29.1 µM [inhibitor, single point]",
COC(=O)c1sc(N)c(C(=O)OC)c1COC(=O)CNS(=O)(=O)c1cccc(C#N)c1,"inconclusive: 8.2 µM [inhibitor, partial curve]",
O=C(Nc1cccc(S(=O)(=O)N2CCCC2)c1)c1ccc2ccccc2n1,active: 20.6 µM,
CCCNC(=O)c1ccc(N2CCC3(CC2)CC(c2cccc(Br)c2)=NO3)c(NC(=O)c2ccc(Br)cc2)c1,,inactive: -25.7%
Cc1cccc(-n2c(=S)[nH]c3sc4c(c3c2=O)CCc2ccccc2-4)c1,"inconclusive: 29.1 µM [inhibitor, single point]",
CC(CC(=O)N1CCc2ccccc21)c1ccccc1 (configuration not stated),"inconclusive: 18.4 µM [activator, single point]",
CN(C(=O)c1cccc(NC(=O)c2ccccc2)c1)C1CCCCC1,,inactive: -11.3%
Cc1cc(OC(C)C(=O)NCCc2c[nH]c3ccccc23)c2c(C)cc(=O)oc2c1 (configuration not stated),"inconclusive: 25.9 µM [inhibitor, single point]",
CN(/N=C/c1cc([N+](=O)[O-])ccc1O)c1ccccc1,"inconclusive: 16.4 µM [activator, partial curve]",
N#Cc1c(-c2ccccc2)c(-c2ccccc2)nn(CC(=O)NNC(=O)Nc2ccc(Cl)c(Cl)c2)c1=O,"inconclusive: 18.4 µM [inhibitor, single point]",
Cc1cccc(NC(=O)CNC(=O)c2ccccc2Cl)n1,"inconclusive: 18.3 µM [activator, partial curve]",
Cc1ccc(OC(C)C(=O)Nc2ccccc2C(=O)N2CCOCC2)cc1 (configuration not stated),,inactive: 19.1%
CC(C)C(=O)Nc1ccc(Cc2ccc(NC(=O)C(C)C)c(O)c2)cc1O,"inconclusive: 29.1 µM [inhibitor, single point]",
COc1ccc(S(=O)(=O)Nc2ccc3c(c2)C(=O)N([C@H](C)CO)C[C@H](C)[C@@H](CN(C)S(=O)(=O)c2c(C)noc2C)O3)cc1,"inconclusive: 6.51 µM [inhibitor, full curve]",
COc1cccc2cc(C(=O)NCCc3ccccc3)c(=O)oc12,"inconclusive: 29.1 µM [activator, single point]",
O=C(O)/C=C/C(=O)N1CCN(c2cccc(Cl)c2)CC1,,inactive: 1.52%
CCCc1cc(=O)n(-c2nc3ccccc3s2)[nH]1,active: 20.6 µM,
CC1=NN(c2ccccc2)C(=O)/C1=C\N1CC(C)OC(C)C1 (configuration not stated),,inactive: -1.93%
Cc1ccc(S(=O)(=O)/N=C2/C=C(C3C(=O)CC(C)(C)CC3=O)C(=O)c3ccccc32)cc1,"inconclusive: 14.6 µM [activator, partial curve, poor fit]",
CC(C)CCNC(=O)c1c[nH]c2ccc(S(=O)(=O)N3CCC4(CC3)OCCO4)cc2c1=O,"inconclusive: 23.1 µM [inhibitor, single point]",
O=C(O)c1[nH]c2ccccc2c1C(c1ccccc1)c1c(C(=O)O)[nH]c2ccccc12,,inactive: 4.53%

# Fetched by structure from the entries so far, 6 records:
Compound,Potency,"activity change, negative = inhibition"
O=C(O)c1[nH]c2ccccc2c1C(c1ccccc1)c1c(C(=O)O)[nH]c2ccccc12,,inactive: 4.53%
CC1CC(C)(C)NC(=S)N1CCCC(=O)N1CCN(c2ccccc2F)CC1 (configuration not stated),,inactive: -5.38%
CN(/N=C/c1cc([N+](=O)[O-])ccc1O)c1ccccc1,"inconclusive: 16.4 µM [activator, partial curve]",
C=CCn1c(NC(=O)c2ccc(C)cc2)c(C#N)sc1=N,"inconclusive: 8.2 µM [activator, partial curve]",
CN(C(=O)c1cccc(NC(=O)c2ccccc2)c1)C1CCCCC1,,inactive: -11.3%
O=C(Cn1c2ccccc2c2nc3n(c(=O)c21)CCS3)Nc1ccccc1,"inconclusive: 6.51 µM [inhibitor, full curve, poor fit]",

# More records.

Compound,Potency,"activity change, negative = inhibition"
CN(C(=O)c1cccc(NC(=O)C2CCN(C(=O)OC(C)(C)C)CC2)c1)C1CCCCC1,active: 23.1 µM,
O=c1c2ccc(Cl)cc2nc(-c2ccc([N+](=O)[O-])cc2)n1O,active: 9.2 µM,
COc1ccc(Cc2nnc(NC(=O)CSc3ccc(Cl)cc3)s2)cc1OC,"inconclusive: 18.4 µM [activator, partial curve, poor fit]",
C/C(=N\N=C\c1ccccc1)c1nnn(-c2nonc2N)c1C,"inconclusive: 29.1 µM [activator, partial curve, poor fit]",
Cc1ccc(CNS(=O)(=O)c2ccc3c(c2)n(C)c(=O)c(=O)n3C)cc1,,inactive: -0.546%
COc1ccc(CC(=O)NCCC2=CCCCC2)cc1,"inconclusive: 32.6 µM [activator, partial curve, poor fit]",
O=C1C2CCCN2C(c2ccc(F)cc2)N1c1nccs1 (configuration not stated),,inactive: 3.51%
CCN(CC)C1CCN(c2nc3nonc3nc2NCCOC)C1 (configuration not stated),"inconclusive: 20.6 µM [activator, partial curve, poor fit]",
CCN(CC)c1ccc(S(=O)(=O)N2CCOCC2)cc1NC(=O)CN1C(=O)NC2(CCC(C)CC2)C1=O (configuration not stated),"inconclusive: 25.9 µM [inhibitor, single point]",
CCOC(=O)[C@H]1[C@H]2COc3ccc(C)cc3[C@@H]2N2C(=O)c3cc(Cl)ccc3NC(=O)[C@@]12C,,inactive: -17.8%
CCN(CC)S(=O)(=O)c1cccc(-c2nnc(SCC(=O)NC3CCCCCC3)n2N)c1,"inconclusive: 18.4 µM [inhibitor, partial curve, poor fit]",
O=C(O)c1ccc2c(c1)-c1cc(C(=O)O)ccc1S2(=O)=O,,inactive: -1.34%
O=C(C1CC(=O)N(c2ccc3c(c2)OCCO3)C1)N1CCN(c2cccc(C(F)(F)F)c2)CC1 (configuration not stated),"inconclusive: 4.61 µM [inhibitor, single point]",
CC1C(=O)N2CCCc3cc(NC(=O)C4CC4)cc1c32 (configuration not stated),"inconclusive: 8.2 µM [activator, single point]",
CCOC(=O)CC(=O)CSc1ccc2nnc(-c3ccc(F)cc3)n2n1,"inconclusive: 11.6 µM [inhibitor, partial curve]",
CCC(C)N1C(=O)S/C(=C/c2ccc(Sc3nc4ccccc4[nH]3)o2)C1=O (configuration not stated),"inconclusive: 1.84 µM [inhibitor, partial curve, poor fit]",
Cc1ccc(/C=N/c2sc3c(c2C#N)CCCCC3)o1,"inconclusive: 1.16 µM [activator, full curve]",
COc1cc(/C=C(\NC(=O)c2ccccc2)C(=O)Nc2nccs2)ccc1OC(C)=O,"inconclusive: 20.6 µM [inhibitor, single point]",
COc1cccc(CNCC(O)COc2ccc(C(=O)c3ccccc3)cc2)c1 (configuration not stated),,inactive: -11.8%
COc1ccc(OC)c(S(=O)(=O)NCC(=O)NC2CCCc3ccccc32)c1 (configuration not stated),,inactive: 12.4%
COc1ccc(-c2nnn(Cc3ccccc3)n2)cc1,"inconclusive: 10 µM [activator, partial curve, poor fit]",
